This note sets out measurements from PMC3036580.

Assay [1] addresses T1, growth hormone receptor (rabbit, wild type) (rabbit) (UniProt P19941).
T1 sequence: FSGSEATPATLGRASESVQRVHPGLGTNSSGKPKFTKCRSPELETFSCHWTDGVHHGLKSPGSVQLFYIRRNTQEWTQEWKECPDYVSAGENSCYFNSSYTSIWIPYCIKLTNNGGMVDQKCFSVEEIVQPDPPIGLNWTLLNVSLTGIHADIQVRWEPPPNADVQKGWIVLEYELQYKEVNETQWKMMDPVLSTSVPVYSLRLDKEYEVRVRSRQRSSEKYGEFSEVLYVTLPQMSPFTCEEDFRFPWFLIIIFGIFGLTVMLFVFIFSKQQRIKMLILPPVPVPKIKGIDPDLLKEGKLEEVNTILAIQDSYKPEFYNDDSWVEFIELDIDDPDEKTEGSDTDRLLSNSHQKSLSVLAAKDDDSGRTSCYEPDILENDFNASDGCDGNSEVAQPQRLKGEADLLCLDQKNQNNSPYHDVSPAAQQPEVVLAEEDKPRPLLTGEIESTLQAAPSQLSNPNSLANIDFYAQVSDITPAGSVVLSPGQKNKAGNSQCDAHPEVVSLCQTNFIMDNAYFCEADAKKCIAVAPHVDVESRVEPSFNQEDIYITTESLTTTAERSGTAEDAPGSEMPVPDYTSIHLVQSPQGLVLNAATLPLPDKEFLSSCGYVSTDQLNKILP
Description: co-IP; GHR immunoprecipitated with anti-GHR and protein A beads from lysates of GHR-expressing Hek293 cells transfected with Flag-Jak2 constructs; lysis in 20 mM Tris pH 8.0, 150 mM NaCl, 0.5% NP40; blot with anti-Flag; cells with or without GH for 15 min at 37°C.

In assay [2] the target is T2, GHR-Rluc (rabbit) (UniProt P19941).
T2 sequence: T1 sequence
Description: FRET or BRET; BRET in living Hek293-TR cells stably expressing GHR-Rluc (donor) and doxycycline-induced YFP-Jak2 (acceptor); ViviRen 60 µM, 37°C, PBS with 0.1% glucose and 25 mM Hepes; without GH or with 200 ng/ml hGH (0-4 min, 10-14 min). In general terms: BRET reads energy transfer from a luciferase to a nearby fluorophore.

These are yes or no findings as the source states them, for the method shown. Binding seen in cells or lysates may run through a third protein. Some entries that bind do so weakly or less than the wild type. Sequences can lack the tags named with a protein.

B1: Flag-Jak2(Y119E) (enzyme, UniProt Q62120 1-1132)
chain: MGMACLTMTEMEATSTSPVHQNGDIPGSANSVKQIEPVLQVYLYHSLGQAEGEYLKFPSGEYVAEEICVAASKACGITPVYHNMFALMSETERIWYPPNHVFHIDESTRHDILYRIRFEFPHWYCSGSSRTYRYGVSRGAEAPLLDDFVMSYLFAQWRHDFVHGWIKVPVTHETQEECLGMAVLDMMRIAKEKDQTPLAVYNSVSYKTFLPKCVRAKIQDYHILTRKRIRYRFRRFIQQFSQCKATARNLKLKYLINLETLQSAFYTEQFEVKESARGPSGEEIFATIIITGNGGIQWSRGKHKESETLTEQDVQLYCDFPDIIDVSIKQANQECSNESRIVTVHKQDGKVLEIELSSLKEALSFVSLIDGYYRLTADAHHYLCKEVAPPAVLENIHSNCHGPISMDFAISKLKKAGNQTGLYVLRCSPKDFNKYFLTFAVERENVIEYKHCLITKNENGEYNLSGTKRNFSNLKDLLNCYQMETVRSDSIIFQFTKCCPPKPKDKSNLLVFRTNGISDVQISPTLQRHNNVNQMVFHKIRNEDLIFNESLGQGTFTKIFKGVRREVGDYGQLHKTEVLLKVLDKAHRNYSESFFEAASMMSQLSHKHLVLNYGVCVCGEENILVQEFVKFGSLDTYLKKNKNSINILWKLGVAKQLAWAMHFLEEKSLIHGNVCAKNILLIREEDRRTGNPPFIKLSDPGISITVLPKDILQERIPWVPPECIENPKNLNLATDKWSFGTTLWEICSGGDKPLSALDSQRKLQFYEDKHQLPAPKWTELANLINNCMDYEPDFRPAFRAVIRDLNSLFTPDYELLTENDMLPNMRIGALGFSGAFEDRDPTQFEERHLKFLQQLGKGNFGSVEMCRYDPLQDNTGEVVAVKKLQHSTEEHLRDFEREIEILKSLQHDNIVKYKGVCYSAGRRNLRLIMEYLPYGSLRDYLQKHKERIDHKKLLQYTSQICKGMEYLGTKRYIHRDLATRNILVENENRVKIGDFGLTKVLPQDKEYYKVKEPGESPIFWYAPESLTESKFSVASDVWSFGVVLYELFTYIEKSKSPPVEFMRMIGNDKQGQMIVFHLIELLKSNGRLPRPEGCPDEIYVIMTECWNNNVSQRPSFRDLSLRVDQIRDSIAA
On to B1, for which the binding result in assay [1] is listed as “no binding”.

B2: YFP-Jak2 Y119E (enzyme, UniProt Q62120 1-1132)
chain: B1 chain
Consider B2, for which the binding entry in assay [2] was “no binding”.

B3: Flag-Jak2(1-525) (domain or fragment, UniProt Q62120 1-525)
chain: MGMACLTMTEMEATSTSPVHQNGDIPGSANSVKQIEPVLQVYLYHSLGQAEGEYLKFPSGEYVAEEICVAASKACGITPVYHNMFALMSETERIWYPPNHVFHIDESTRHDILYRIRFYFPHWYCSGSSRTYRYGVSRGAEAPLLDDFVMSYLFAQWRHDFVHGWIKVPVTHETQEECLGMAVLDMMRIAKEKDQTPLAVYNSVSYKTFLPKCVRAKIQDYHILTRKRIRYRFRRFIQQFSQCKATARNLKLKYLINLETLQSAFYTEQFEVKESARGPSGEEIFATIIITGNGGIQWSRGKHKESETLTEQDVQLYCDFPDIIDVSIKQANQECSNESRIVTVHKQDGKVLEIELSSLKEALSFVSLIDGYYRLTADAHHYLCKEVAPPAVLENIHSNCHGPISMDFAISKLKKAGNQTGLYVLRCSPKDFNKYFLTFAVERENVIEYKHCLITKNENGEYNLSGTKRNFSNLKDLLNCYQMETVRSDSIIFQFTKCCPPKPKDKSNLLVFRTNGISDVQISPT
Turning to B3, in assay [1], the binding entry is recorded as “binds”.
